# Test results taken from paper PMC10644093.
# Amino acid sequences for entries named in this document (tags omitted). Residues count along the entry.
# UniProt P9WGT7, residues 23-370: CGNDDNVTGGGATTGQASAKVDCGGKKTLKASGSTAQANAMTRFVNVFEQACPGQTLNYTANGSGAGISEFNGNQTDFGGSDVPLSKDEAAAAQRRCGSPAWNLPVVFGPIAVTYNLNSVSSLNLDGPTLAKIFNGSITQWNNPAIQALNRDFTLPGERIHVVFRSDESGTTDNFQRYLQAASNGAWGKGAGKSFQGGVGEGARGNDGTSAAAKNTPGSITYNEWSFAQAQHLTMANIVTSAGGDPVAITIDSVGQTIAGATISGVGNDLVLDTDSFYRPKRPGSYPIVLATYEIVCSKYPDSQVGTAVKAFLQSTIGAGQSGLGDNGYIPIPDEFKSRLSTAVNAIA
# These are yes or no findings as the source states them, for the method shown. In cells and extracts the contact can be indirect. Some binding calls cover weakened binding; strength is not graded here.
# B1: mitochondrial phosphate carrier protein SLC25A3 (protein, UniProt Q8VEM8 46-357)
# chain: AVEEYSCEFGSMKYYALCGFGGVLSCGLTHTAVVPLDLVKCRMQVDPQKYKGIFNGFSITLKEDGVRGLAKGWAPTLIGYSMQGLCKFGFYEVFKALYSNILGEENTYLWRTSLYLASSASAEFFADIALAPMEAAKVRIQTQPGYANTLREAVPKMYKEEGLNAFYKGVAPLWMRQIPYTMMKFACFERTVEALYKFVVPKPRSECTKAEQLVVTFVAGYIAGVFCAIVSHPADSVVSVLNKEKGSTASQVLQRLGFRGVWKGLFARIIMIGTLTALQWFIYDSVKVYFRLPRPPPPEMPESLKKKLGLTE
# Molecular target: Flag-tagged Mycobacterium tuberculosis Rv0928 protein stably expressed in RAW264.7 cells (RAW-Rv0928) (Mycobacterium tuberculosis H37Rv) (UniProt P9WGT7)
# Assay: co-IP
binder,measurement,value
B1,binding,binds
